The test concerns BDF1 mice, Lewis lung carcinoma iv, survival T/C. In words: NCI In Vivo Anticancer Drug Screen. Data for tumor model Lewis Lung Carcinoma (intravenous) in B6D2F1 (BDF1) mice. The conditions noted are these: T/C endpoint: median survival time, higher T/C = longer survival. The method, then: The antitumor activity of compounds was measured in mice bearing transplantable tumors. Survival or tumor size were measured and the results are expressed as the measurement made in the treated group (T) divided by the measurement made in the vehicle treated control group (C). The tumor model used in this assay is Lewis Lung Carcinoma (intravenous) in B6D2F1 (BDF1) mice

The mark [1] stands for this setting: dose: 400.0 mg/kg/injection, schedule: Q01DX009 (ip), vehicle: saline with Tween-80.
Setting [2] is: dose: 200.0 mg/kg/injection, schedule: Q01DX009 (ip), vehicle: saline with Tween-80.
The mark [3] stands for this setting: dose: 200.0 mg/kg/injection, schedule: Q01DX009 (ip), vehicle: Klucel (hydroxypropylcellulose) (HPC).
The mark [4] stands for this setting: dose: 400.0 mg/kg/injection, schedule: Q01DX009 (ip), vehicle: Klucel (hydroxypropylcellulose) (HPC).
The mark [5] stands for this setting: dose: 50.0 mg/kg/injection, schedule: Q01DX009 (ip), vehicle: Klucel (hydroxypropylcellulose) (HPC).
Setting [6] is: dose: 100.0 mg/kg/injection, schedule: Q01DX009 (ip), vehicle: Klucel (hydroxypropylcellulose) (HPC).

The list is a part of this screen's results and no random one: it gathers tests that were run many times, whatever their T/C, doses with no T/C, and many T/C values between a quarter and a half above the control. Further doses and runs are listed elsewhere. T/C: endpoint of the treated group in % of that of the vehicle group. Some entries give survivors of the animals treated and no T/C: the source files T/C as zero there, which appears to mark a toxic dose or a test without result, not a measured value. Some doses without a T/C left all or most animals alive at the check, yet need not have been tolerated: the source hardly ever lists a survival T/C far under the control, and the zero likely stands for such cases as well. Survivors were counted at the toxicity check, usually on the fifth day, unless a day is given; later deaths do not show. Schedule codes are those of the source, taken here to give the interval after Q, in days (D) or hours (H), and the number of doses after X. Some doses were run more than once; their values stand side by side, smallest first. For survival time, this PubChem deposit counts one and a half times the control or more as active, and values a quarter to a half above the control carry no call in these data; other NCI protocols may use other cut-offs. Some T/C values carry the count of animals alive at the toxicity check (mostly the fifth day); where none is given, no animal had died by that day.

For `O=P1(N(CCCl)CCCl)NCCCO1` (stereo not drawn), the T/C is 152 % of control (dose: 60.0 mg/kg/injection, schedule: Q01DX001 (ip), vehicle: saline, evaluated on day 18); 101 [7 of 8 alive], 129 [6 of 8 alive], 152 % of control [7 of 8 alive] (dose: 60.0 mg/kg/injection, schedule: Q01DX001 (ip), vehicle: saline, evaluated on day 60); 157 % of control (dose: 90.0 mg/kg/injection, schedule: Q01DX001 (ip), vehicle: saline, evaluated on day 18); 92 [6 of 8 alive], 157 [7 of 8 alive], 229 % of control [7 of 8 alive] (dose: 90.0 mg/kg/injection, schedule: Q01DX001 (ip), vehicle: saline, evaluated on day 60); 128, 161, 427 % of control (dose: 90.0 mg/kg/injection, schedule: Q01DX001 (ip), vehicle: saline, evaluated on day 90); 145 % of control (dose: 100.0 mg/kg/injection, schedule: Q01DX001 (ip), vehicle: saline). Besides, the T/C (dose: 133.0 mg/kg/injection, schedule: Q01DX001 (ip), vehicle: saline, evaluated on day 18) is 139 % of control; the T/C (dose: 133.0 mg/kg/injection, schedule: Q01DX001 (ip), vehicle: saline, evaluated on day 60) was 101 [6 of 8 alive], 139, 276 % of control [7 of 8 alive]; the T/C (dose: 133.0 mg/kg/injection, schedule: Q01DX001 (ip), vehicle: saline, evaluated on day 90) is given as 150, 157, 182, 428 % of control; the T/C (dose: 156.0 mg/kg/injection, schedule: Q01DX001 (ip), vehicle: saline) is 132 % of control; the T/C (dose: 200.0 mg/kg/injection, schedule: Q01DX001 (ip), vehicle: saline, evaluated on day 18) was 187 % of control; the T/C (dose: 200.0 mg/kg/injection, schedule: Q01DX001 (ip), vehicle: saline, evaluated on day 60) was 138, 187, 276 % of control [6 of 8 alive]. Further, the T/C (dose: 200.0 mg/kg/injection, schedule: Q01DX001 (ip), vehicle: saline, evaluated on day 90) is 169 [7 of 8 alive], 171, 427, 428 % of control; the T/C (dose: 300.0 mg/kg/injection, schedule: Q01DX001 (ip), vehicle: saline, evaluated on day 18) was 230 % of control; the T/C (dose: 300.0 mg/kg/injection, schedule: Q01DX001 (ip), vehicle: saline, evaluated on day 60) is 230 % of control [7 of 8 alive]; the T/C (dose: 300.0 mg/kg/injection, schedule: Q01DX001 (ip), vehicle: saline, evaluated on day 90) is 109, 133, 180 [7 of 8 alive], 242 % of control; the T/C (dose: 300.0 mg/kg/injection, schedule: Q10DX002 (ip), vehicle: saline) is 138 % of control. For the same molecule, the survivor count is, setting by setting: (dose: 200.0 mg/kg/injection, schedule: Q01DX001 (ip), vehicle: saline) 10 of 10; (dose: 300.0 mg/kg/injection, schedule: Q01DX001 (ip), vehicle: saline) 5 of 8 and 7 of 8; (dose: 312.0 mg/kg/injection, schedule: Q01DX001 (ip), vehicle: saline) 6 of 10; (dose: 400.0 mg/kg/injection, schedule: Q01DX001 (ip), vehicle: saline) 9 of 10; (dose: 450.0 mg/kg/injection, schedule: Q01DX001 (ip), vehicle: saline) 1 of 8, 4 of 8, 5 of 8; (dose: 624.0 mg/kg/injection, schedule: Q01DX001 (ip), vehicle: saline) 1 of 10.
As to `OC(CBr)C(O)C(O)C(O)CBr` (stereo not drawn), the T/C (dose: 25.0 mg/kg/injection, schedule: Q01DX009 (ip), vehicle: Klucel (hydroxypropylcellulose) (HPC)) is 134 % of control.
As for `CC(=O)N(C)O`, the survivor count under setting [1] was 10 of 10.
Regarding `O=NN(CCCl)C(=O)NC1CCC(=O)NC1=O` (stereo not drawn), the survivor count (dose: 16.0 mg/kg/injection, schedule: Q01DX009 (ip), vehicle: saline with Tween-80) is on record as 9 of 10.
Take `CC1(c2ccc(Cl)cc2)OC(=O)C(=Cc2ccc([N+](=O)[O-])s2)C(=O)O1` (stereo not drawn): under setting [2], the survivor count is reported as 6 of 10.
As for `CN(C)CC(Cl)CCl` (stereo not drawn), the survivor count is reported as 10 of 10 (dose: 50.0 mg/kg/injection, schedule: Q01DX009 (ip), vehicle: saline); 10 of 10 (dose: 100.0 mg/kg/injection, schedule: Q01DX009 (ip), vehicle: saline); 7 of 7 (dose: 200.0 mg/kg/injection, schedule: Q01DX009 (ip), vehicle: saline); 0 of 10 (dose: 400.0 mg/kg/injection, schedule: Q01DX009 (ip), vehicle: saline).
In the case of `Clc1ccc2nnnn2n1`, the survivor count under setting [1] was 3 of 9.
For `CN(C)c1nc(N(C)C)nc(N(C)C)n1`, under “dose: 25.0 mg/kg/injection, schedule: Q01DX009 (ip), vehicle: saline with Tween-80”, the T/C was 125 % of control. Also, the survivor count (dose: 300.0 mg/kg/injection, schedule: Q04DX003 (ip), vehicle: Klucel (hydroxypropylcellulose) (HPC)) was 7 of 7; the survivor count under setting [1] is given as 9 of 10; the survivor count (dose: 450.0 mg/kg/injection, schedule: Q04DX003 (ip), vehicle: Klucel (hydroxypropylcellulose) (HPC)) is recorded as 1 of 7; the survivor count (dose: 675.0 mg/kg/injection, schedule: Q04DX003 (ip), vehicle: Klucel (hydroxypropylcellulose) (HPC)) is reported as 0 of 7.
In the case of `CCc1ncnc2cc(OCC3CO3)c(OC)cc12` (stereo not drawn), the survivor count (dose: 50.0 mg/kg/injection, schedule: Q01DX009 (ip), vehicle: suspension in saline) was 10 of 10 and the survivor count (dose: 100.0 mg/kg/injection, schedule: Q01DX009 (ip), vehicle: suspension in saline) was 7 of 10.
As to `Nc1ccccc1N`, the survivor count by setting is: under setting [3], 9 of 10; under setting [4], 0 of 10.
With `CC(C)NC(=O)OCc1c(COC(=O)NC(C)C)c(-c2ccc(Cl)c(Cl)c2)n2c1CCC2`, where the note is “dose: 25.0 mg/kg/injection, schedule: Q01DX009 (ip), vehicle: distilled water + Tween-80”, the T/C was 125 % of control.
As to `Cc1c2ccncc2c(C)c2c1[nH]c1ccccc12`, under setting [5], the T/C is 127 % of control. Besides, the survivor count runs as follows: under setting [6], 10 of 10; under setting [3], 10 of 10.
On to `O=C(Nc1ccc(N=C=S)cc1Cl)c1cc(Cl)cc(Cl)c1O`, for which the survivor count under setting [6] was 7 of 10 and the survivor count under setting [3] was 5 of 10.
With `NC(=O)c1ncn(C2OC(CO)C(O)C2O)n1` (stereo not drawn), the survivor count (dose: 320.0 mg/kg/injection, schedule: Q01DX009 (ip), vehicle: saline) is on record as 10 of 10.
`COc1cc(C(C)(C)C)cc(OC)c1C(O)(c1c(OC)cc(C(C)(C)C)cc1OC)c1c(OC)cc(C(C)(C)C)cc1OC`: the survivor count runs as follows: (dose: 50.0 mg/kg/injection, schedule: Q01DX009 (ip), vehicle: saline with Tween-80) 8 of 10; (dose: 100.0 mg/kg/injection, schedule: Q01DX009 (ip), vehicle: saline with Tween-80) 3 of 10 and 10 of 10; under setting [2], 2 of 10 and 8 of 10.
As to `NC(Cc1cc([N+](=O)[O-])ccc1CN(CCCl)CCCl)C(=O)O` (stereo not drawn), the T/C (dose: 9.0 mg/kg/injection, schedule: Q04DX003 (ip), vehicle: Klucel (hydroxypropylcellulose) (HPC)) is 130 % of control. Further, the survivor count (dose: 25.0 mg/kg/injection, schedule: Q04DX003 (ip), vehicle: Klucel (hydroxypropylcellulose) (HPC)) is 8 of 8.
For `COc1ccc(C(N)=O)cc1N=NN(C)C`, the survivor count is on record as 9 of 10 under setting [5] and 7 of 10 under setting [6].
Take `O=C1C(=O)c2ccccc2C(O)=C1CC=C(Cl)Cl`: the survivor count under setting [6] is 8 of 10, the survivor count under setting [3] is recorded as 4 of 10 and the survivor count under setting [4] is 0 of 10.

The values above are taken from PubChem BioAssay AID274 (DTP/NCI, 2004).
